Source: patent publication US9416123B2, “Kinase modulators for the treatment of cancer” (Synovo GmbH, priority 2011, dated 2016)
At least one compound was matched to its structure with a doubt left.

Tested on: Lewis Lung Carcinoma Cells (LLC)
Assay: Treatment of cancer by Lewis Lung Carcinoma cells in mice
Assay type: in vivo
Conditions: 10 mg/kg p.o. once daily, C57BLK6 mice, LLC cells s.c. or i.v.

Q: Nc1c(-c2ccc(F)cc2)c(-c2ccncc2)nn1-c1c(Cl)cc(Cl)cc1Cl [Compound 6] was tested. Which “growth rate of the LLC tumour” value did it give?
A: The value was “reduction in the growth rate of the LLC tumour”.
